Assay results: US20250206834A1

B1: VV02-1LP-263 huNb_1_2 (Fc fusion, not shown: a dimerising Fc or GST)
VHH: EVQLLESGGGLVQPGGSLRLSCAASGFTFSSSAMSWARQAPGKGLEWVSGIYSGGSTYYTESVKDRFTISRDNSKNTVYLQMNSLKPEDTAVYYCATWGTLRFGVWAEYDHWGQGTLVTVSS
B2: VV02-1LP-263 huNb_1_3 (Fc fusion, not shown: a dimerising Fc or GST; small tags and cut ends)
VHH: B1 VHH with A40T, L45F, L117Q
B3: VV02-1LP-263 huNb_2_2 (Fc fusion, not shown: a dimerising Fc or GST; small tags and cut ends)
VHH: B1 VHH with L5V, S74A, V78L, K86R
B4: VV02-1LP-263 huNb_2_3 (Fc fusion, not shown: a dimerising Fc or GST; small tags and cut ends)
VHH: B1 VHH with L5V, L45F, S74A
B5: VV02-1LP-263 huNb_3_2 (Fc fusion, not shown: a dimerising Fc or GST; small tags and cut ends)
VHH: B1 VHH with E1Q, L5V, Q13K, L45F, S74A, T77S, V78L, K86R, L117Q
B6: VV02-1LP-263 huNb_3_3 (Fc fusion, not shown: a dimerising Fc or GST; small tags and cut ends)
VHH: B1 VHH with E1Q, L5V, L45F, S74A, T77S, L117Q

The binders below were run against cynomolgus 4-1BB (cynomolgus) (assay: flow cytometry, CHO-K1 cells overexpressing cynomolgus 4-1BB).

binding, binds:
B1, B2, B3, B4, B5, B6

Changes are numbered by the printed parent chain. These are yes or no findings as the source states them, for the method shown. Binding can be weak; no strength is given.
